Experimental data published in US4367216A, “Triiodinated 5-aminoisophthalic acid derivatives” (Schering Aktiengesellschaft, priority 1979, dated 1983).
Some results come without the dose or concentration used.

Tested on: lymphatic system of dogs
Assay: Lymphography comparison of A, B and C after direct and indirect administration
Type: in vivo
Details: lymphography with A or B
Method: The following table compares the advantageous effects of the compounds of this invention in lymphography, using as test substances thiodipropionic acid bis[3,5-bis-(2,3-dihydroxypropyl-N-methylcarbamoyl)-2,4,6-triiodoanilide] (A) and 4,4,6,6-tetramethyl-4,6-disila-5-oxanonanedioic acid bis[3,5-bis(2,3-dihydroxypropyl-N-methylcarbamoyl)-2,4,6-triiodoanilide] (B) in comparison with the fatty acid ethyl ester of iodinated oleum papaveris (C). The test results were determined on dogs using testing methods conventional in lymphography after direct and indirect administration.

Row | SMILES | Treatment period
1 | CN(CC(O)CO)C(=O)c1c(I)c(NC(=O)CCSCCC(=O)Nc2c(I)c(C(=O)N(C)CC(O)CO)c(I)c(C(=O)N(C)CC(O)CO)c2I)c(I)c(C(=O)N(C)CC(O)CO)c1I (centres unmarked) [A, thiodipropionic acid bis[3,5-bis-(2,3-dihydroxypropyl-N-methylcarbamoyl)-2,4,6-triiodoanilide]] | ≤ 4 h
2 | CN(CC(O)CO)C(=O)c1c(I)c(NC(=O)CC[Si](C)(C)O[Si](C)(C)CCC(=O)Nc2c(I)c(C(=O)N(C)CC(O)CO)c(I)c(C(=O)N(C)CC(O)CO)c2I)c(I)c(C(=O)N(C)CC(O)CO)c1I (centres unmarked) [B, 4,4,6,6-tetramethyl-4,6-disila-5-oxanonanedioic acid bis[3,5-bis(2,3-dihydroxypropyl-N-methylcarbamoyl)-2,4,6-triiodoanilide]] | ≤ 4 h
